PMC7093646
No constants are given. Whether binding was seen depends on the method and setting. Binding seen in cells or lysates may run through a third protein.

Target: T1, ANO1 (Ca2+-activated Cl- channel encoded by Ano1) (mouse (endogenous in small intestine muscle and ICC)) (UniProt Q8BHY3)
T1 sequence: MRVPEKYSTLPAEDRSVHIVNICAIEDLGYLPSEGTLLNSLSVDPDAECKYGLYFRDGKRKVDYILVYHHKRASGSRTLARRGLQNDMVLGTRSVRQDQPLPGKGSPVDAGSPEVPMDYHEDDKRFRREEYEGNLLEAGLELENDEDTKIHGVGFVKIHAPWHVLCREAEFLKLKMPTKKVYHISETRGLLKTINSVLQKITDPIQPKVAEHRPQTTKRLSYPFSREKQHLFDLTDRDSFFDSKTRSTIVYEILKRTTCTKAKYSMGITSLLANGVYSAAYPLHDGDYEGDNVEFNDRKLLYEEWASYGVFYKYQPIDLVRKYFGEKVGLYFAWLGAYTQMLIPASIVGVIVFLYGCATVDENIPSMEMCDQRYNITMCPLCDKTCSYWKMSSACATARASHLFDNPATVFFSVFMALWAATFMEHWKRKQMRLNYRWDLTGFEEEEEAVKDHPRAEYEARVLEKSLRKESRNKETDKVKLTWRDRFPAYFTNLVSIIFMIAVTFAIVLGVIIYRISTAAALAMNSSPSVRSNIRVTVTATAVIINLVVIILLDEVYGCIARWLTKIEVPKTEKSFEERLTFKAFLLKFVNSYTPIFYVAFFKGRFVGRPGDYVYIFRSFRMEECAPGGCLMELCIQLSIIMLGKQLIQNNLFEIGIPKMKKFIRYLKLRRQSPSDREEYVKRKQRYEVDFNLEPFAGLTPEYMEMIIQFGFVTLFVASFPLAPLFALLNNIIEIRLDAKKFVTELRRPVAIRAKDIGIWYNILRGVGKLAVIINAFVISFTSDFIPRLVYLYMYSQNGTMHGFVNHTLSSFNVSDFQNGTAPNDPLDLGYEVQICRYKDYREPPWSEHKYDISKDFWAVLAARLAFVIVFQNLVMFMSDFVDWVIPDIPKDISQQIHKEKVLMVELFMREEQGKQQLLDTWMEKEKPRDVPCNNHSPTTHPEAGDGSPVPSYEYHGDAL
Assay: proximity ligation; isolated small intestinal ICC, fixed in 4% paraformaldehyde and permeabilized; goat anti-NCX3 and rabbit anti-ANO1 primary antibodies, Duolink secondary antibodies; PLA spots per cell divided by cell area and normalized; negative control with rabbit anti-ANO1 and mouse anti-myosin light chain

For “myosin regulatory light chain (mouse (endogenous in ICC))”, the binding was “no binding”.
